## Primary screen of a compound library

The values are deposited in ChEMBL (CHEMBL3988442, “University of Dundee, Small-Polar-MMV Screening Library” (2021)).

Results are given as percent effect. How 0% and 100% were set is not recorded. Most values in the screen are low, and negative values occur. Compounds were drawn at random from those tested, without regard to their results.

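Whole-cell assay for inhibitors of Mycobacterium tuberculosis growth, labelled Cornell in the record; the read-out is not stated. The concentration is filed as 10 mM, unlikely as a test dose, so the dose is not known. Higher means stronger inhibition (inferred from two other growth screens of the library). Size under these conditions: about 53,000 compounds, about 900 of them at 50% or above in at least one test.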

- O=C(O)C(F)(F)F.c1ccc(OCc2noc3c2CN(c2ncccn2)CC3)nc1 | 23.7%
- Cn1cccc1C(=O)N1CCC2(CCCN2S(C)(=O)=O)CC1 | -46.4%
- O=C(NCc1cccs1)c1nc2c(o1)CN(C(=O)c1cccnc1)C2.O=C(O)C(F)(F)F | -42.27%
- c1cnc(NCC2Cn3nnc(-c4ccoc4)c3CO2)nc1 (stereo not shown) | 17.88%
- CC(C)(C)c1n[nH]c(C2CN(C(=O)c3cc(Cl)c[nH]3)CCO2)n1 (stereo not shown) | 1.711%
- CCN(Cc1ccc(O)c(C(=O)O)c1)CC1CCCO1 (stereo not shown) | -14.45%
- COc1ccc(F)cc1CN(CC(N)=O)C(C)C | -0.4736%
- O=C(CCCOc1ccccc1Cl)N1CCCC(n2cncn2)C1 (stereo not shown) | -8.235%
- OCCOCCNCC1(c2ccc(F)cc2)CCOC1 (stereo not shown) | 15.95%
- CC(C)(C)OC(=O)NCCC(=O)NCC(O)c1cccc(F)c1 (stereo not shown) | -18.92%
- COc1ccc(C)cc1-n1cnnc1C1CCOCC1 | -37.68%
- C=C(C)CSc1nnc(CCNC(=O)OC(C)(C)C)o1 | -3.852%
- CC(NC(=O)CCCOc1ccccc1Cl)c1ccncc1 (stereo not shown) | -15.35%
- O=C(c1ccnc(NC2CC2)c1)N1CCCC1c1cccc(Br)c1 (stereo not shown) | 7.509%
- CC(C)c1nncn1CCNC(=O)c1ccc(Cl)cc1O | 1.451%
- COc1ccc(-c2noc(C(CC(C)C)N3CCCCC3=O)n2)cn1 (stereo not shown) | -23.71%
- O=C(c1cncs1)N1CCOCC(Cc2ccncn2)C1 (stereo not shown) | 12.31%
- Cc1ccc(OCC(=O)NCC(C)C)nc1 | 19.96%
- Fc1cnc(N2CCC3(CCCN(c4nncs4)C3)C2)nc1 (stereo not shown) | -0.4599%
- [H][C@]12CCC[C@@]1(COCC1CCOCC1)CN(C(=O)c1ccncn1)C2 | 2.154%
- Cc1ccc(NC(=O)N2CCC3(CCC(C(=O)N(C)C)O3)CC2)cc1 (stereo not shown) | -1.084%
- CC(C)NC(=O)C1CN(C(=O)Nc2cccc(F)c2)CC12CCOCC2 (stereo not shown) | 14.25%
- N#Cc1ccc(CN2CCN(Cc3ccncc3Cl)CC2=O)cc1 | -1.448%
- OCC1(O)CCCN(Cc2ccccc2OCCc2ccccc2)CC1 (stereo not shown) | 25.3%
- Cc1cnn(CCCNC(=O)NC(C)C(=O)Nc2ccccc2)c1 (stereo not shown) | 11.14%
- CCCn1[nH]c(CNc2cccc(Cl)c2)nc1=O | 24.3%
- CCn1nc(C)c2c1cnn2CCNS(=O)(=O)c1cccs1 | -15.07%
- CCOC(C)c1nc(Cn2cc(-n3cccc3)cn2)cs1 (stereo not shown) | 56.69%
- Cl.Cl.OC(CN1CCN(Cc2cc(F)ccc2F)CC1)C1CC1 (stereo not shown) | 21.11%
- [H][C@@]12C[C@@H](OCC3CC3)CN1CCN(S(=O)(=O)c1cccs1)C2 | 22.53%
- Cc1cnc(N2CCn3c(CN4CCOCC4)nnc3C2)nc1.O=C(O)C(F)(F)F | 0.2395%
- CC(C)n1cc(CN2CCCN(C(=O)c3ccco3)CC2)cn1 | -7.767%
- O=C(Cc1csc(-c2cccc(Cl)c2)n1)NCc1cccc(C(=O)O)c1 | 5.515%
- CN(C)C(=O)N1CCC2(CC(=O)N(c3cccc(C#N)c3)C2)C1 (stereo not shown) | 16.87%
- CCCc1nc(N[C@H]2COC[C@@H]2N2CCCC2)c2cnn(C)c2n1 | 20.48%
- CNC(=O)c1cc(C2CCCNC2)n[nH]1.Cl (stereo not shown) | -11.82%
- O=C(CN1CCCC1Cn1cncn1)Nc1nccs1 (stereo not shown) | 20.94%
- COCc1csc(NC(=O)NCc2ccsc2)n1 | 14.76%
- COCCN(Cc1ccccn1)C(=O)CC1OCCc2ccccc21 (stereo not shown) | -26.34%
- Cc1c(CN2CCOCC2)c(O)n(CCO)c(=O)c1C#N | -84.89%
- Cc1cn2c(=O)c(-c3ccnc(N[C@@H](C)CO)n3)cnc2s1 | -13.65%
- O=C(O)C(F)(F)F.O=C(O)C(F)(F)F.[H][C@]12C[C@@H](C(=O)N(C)Cc3ccccn3)CO[C@@]1([H])CCN(C)C2 | -2.862%
- O=C(O)c1csc(S(=O)(=O)Nc2cccc(OCC(F)(F)F)c2)c1 | -23.62%
- CC(=O)N1CCC(Cc2ccc(-c3ccnn3C)nc2)CC1 | 44.01%
- CNC(=O)CCc1cc(C2CCCN2S(C)(=O)=O)nc(C)n1 (stereo not shown) | 22.43%

2 of the entries, repeated:

| Compound | effect |
|---|---|
| `Cn1cccc1C(=O)N1CCC2(CCCN2S(C)(=O)=O)CC1` | -46.4% |
| `O=C(O)c1csc(S(=O)(=O)Nc2cccc(OCC(F)(F)F)c2)c1` | -23.62% |